Results published in US9320735B2, “Myeloid derived suppressor cell inhibiting agents” (Colorado State University Research Foundation, priority 2010, dated 2016).
Some entries share one result that the patent states for a list of compounds.

Sequences of proteins named here, by UniProt entry; tags and fusion partners are left off.
UniProt P41597, whole entry, species assumed: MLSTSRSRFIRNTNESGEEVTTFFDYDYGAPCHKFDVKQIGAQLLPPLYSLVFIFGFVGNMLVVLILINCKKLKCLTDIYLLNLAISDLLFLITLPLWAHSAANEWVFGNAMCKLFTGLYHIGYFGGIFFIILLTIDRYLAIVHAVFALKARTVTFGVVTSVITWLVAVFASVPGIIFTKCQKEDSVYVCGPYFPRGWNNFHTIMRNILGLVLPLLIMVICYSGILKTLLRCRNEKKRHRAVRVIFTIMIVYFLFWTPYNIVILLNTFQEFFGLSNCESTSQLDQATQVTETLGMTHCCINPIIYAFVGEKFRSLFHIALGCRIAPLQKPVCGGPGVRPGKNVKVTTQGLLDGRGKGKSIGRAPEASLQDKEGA

Target: CCR2 (Homo sapiens, UniProt P41597)
Experiment: Expected antibody titer with influenza vaccine plus CCR2 antagonist
Assay type: in vivo

Compound: Cl.O=C1Nc2ccccc2C2(CCN(CCc3ccc(C(F)(F)F)cc3)CC2)O1 [RS102895]
- antibody titer levels vs regimen without CCR2 antagonist: ≥ 2 fold
